The text below walks through data of PubChem BioAssay AID330 (DTP/NCI, 2004).

The list shows only some results of the screen, not a fair sample: it is rich in T/C values a quarter to a half above the control, in often repeated tests (any T/C) and in doses without a T/C. Further doses and runs are listed elsewhere. T/C gives the treated animals as a percentage of the vehicle group. Some doses have a count of surviving animals in place of a T/C: the source files T/C as zero there, which appears to mark a toxic dose or a test without result, not a measured value. Some doses without a T/C left all or most animals alive at the check, yet need not have been tolerated: the source hardly ever lists a survival T/C far under the control, and the zero likely stands for such cases as well. Counts of survivors are from the toxicity check (mostly the fifth day) where no day follows; animals may have died later. Schedule codes are those of the source, taken here to give the interval after Q, in days (D) or hours (H), and the number of doses after X. Some entries hold several experiments; the results are listed from low to high. For survival time, this PubChem deposit counts one and a half times the control or more as active, and values a quarter to a half above the control carry no call in these data; other NCI protocols may use other cut-offs. Some T/C values carry the count of animals alive at the toxicity check (mostly the fifth day); without a count, all were alive then.

In the test the test system is P388 leukemia ip, CD2F1 mice, survival T/C. Kind of test: NCI In Vivo Anticancer Drug Screen. Data for tumor model P388 Leukemia (intraperitoneal) in CD2F1 (CDF1) mice. The following applies: T/C endpoint: median survival time, higher T/C = longer survival.
Where [1] appears, read: dose: 50.0 mg/kg/injection, schedule: Q01DX009 (ip), vehicle: Klucel (hydroxypropylcellulose) (HPC).
Where [2] appears, read: dose: 100.0 mg/kg/injection, schedule: Q01DX009 (ip), vehicle: Klucel (hydroxypropylcellulose) (HPC).
The mark [3] stands for this setting: dose: 200.0 mg/kg/injection, schedule: Q01DX009 (ip), vehicle: Klucel (hydroxypropylcellulose) (HPC).

Consider `CC[C@@]1(O)C[C@H](OC2CC(N(C)C)C(O)C(C)O2)c2c(O)c3c(c(O)c2[C@H]1OC1CC(N(C)C)C(O)C(C)O1)C(=O)c1cccc(O)c1C3=O` (stereo partly drawn), for which the T/C (dose: 0.06 mg/kg/injection, schedule: Q01DX009 (ip), vehicle: other) was 131 % of control and the T/C (dose: 0.13 mg/kg/injection, schedule: Q01DX009 (ip), vehicle: other) was 133 % of control. Further, the survivor count was 6 of 6 (dose: 0.25 mg/kg/injection, schedule: Q01DX009 (ip), vehicle: other) and 4 of 6 (dose: 0.5 mg/kg/injection, schedule: Q01DX009 (ip), vehicle: other).

Consider `CCCC1CCCC[N+]1(C)[B-](F)(F)F` (stereo not drawn), for which the survivor count is, setting by setting: (dose: 50.0 mg/kg/injection, schedule: Q01DX005 (ip), vehicle: saline) 3 of 6; (dose: 100.0 mg/kg/injection, schedule: Q01DX005 (ip), vehicle: saline) 0 of 6; (dose: 200.0 mg/kg/injection, schedule: Q01DX005 (ip), vehicle: saline) 0 of 6.

Regarding `CC(=O)Oc1c(C)c(OC(C)=O)c2c(c1C(C)=O)OC1CC(=O)C(C(C)=O)=C(O)C21C` (stereo not drawn), the survivor count is, setting by setting: (dose: 25.0 mg/kg/injection, schedule: Q01DX009 (ip), vehicle: gum acacia) 6 of 6; (dose: 200.0 mg/kg/injection, schedule: Q01DX009 (ip), vehicle: gum acacia) 3 of 6 and 4 of 6.

Consider `CN(C)CCSc1cccc2c1C(=O)c1cccc(SCCN(C)C)c1C2=O`, for which the survivor count is on record as 6 of 6 (dose: 25.0 mg/kg/injection, schedule: Q01DX009 (ip), vehicle: saline); 6 of 6 (dose: 50.0 mg/kg/injection, schedule: Q01DX009 (ip), vehicle: saline); 6 of 6 (dose: 50.0 mg/kg/injection, schedule: Q01DX009 (ip), vehicle: water); 6 of 6 (dose: 100.0 mg/kg/injection, schedule: Q01DX009 (ip), vehicle: saline); 4 of 6 (dose: 100.0 mg/kg/injection, schedule: Q01DX009 (ip), vehicle: water); 6 of 6 (dose: 200.0 mg/kg/injection, schedule: Q01DX009 (ip), vehicle: saline). In addition, the survivor count (dose: 400.0 mg/kg/injection, schedule: Q01DX009 (ip), vehicle: saline) is 0 of 6.

In the case of `O=C(Cc1nc2ccccc2[nH]1)NNC(=S)NC1CCCCC1`, where the note is “dose: 200.0 mg/kg/injection, schedule: Q01DX005 (ip), vehicle: Klucel (hydroxypropylcellulose) (HPC)”, the survivor count is reported as 6 of 6.

Turning to `Cc1ccc(S(=O)(=O)NC(=O)NC(C)Cc2ccccc2)cc1` (stereo not drawn), the survivor count (dose: 100.0 mg/kg/injection, schedule: Q01DX009 (ip), vehicle: saline with Tween-80) is recorded as 6 of 6.

On to `COc1cccc2c1C(=N)c1c(O)c3c(c(O)c1C2=O)C[C@@](O)(C(C)=O)C[C@@H]3OC1CC(N)C(O)C(C)O1` (stereo partly drawn), for which the T/C by setting is: (dose: 0.25 mg/kg/injection, schedule: Q01DX009 (ip), vehicle: water) 137 and 138 % of control; (dose: 0.5 mg/kg/injection, schedule: Q01DX009 (ip), vehicle: saline) 146 % of control; (dose: 0.5 mg/kg/injection, schedule: Q01DX009 (ip), vehicle: water) 137 % of control; (dose: 1.5 mg/kg/injection, schedule: Q04DX003 (ip), vehicle: water) 133 % of control [5 of 6 alive]; (dose: 1.94 mg/kg/injection, schedule: Q04DX003 (ip), vehicle: water) 137 % of control; (dose: 3.0 mg/kg/injection, schedule: Q04DX003 (ip), vehicle: water) 136 % of control. Also, the T/C runs as follows: (dose: 4.0 mg/kg/injection, schedule: Q01DX009 (ip), vehicle: saline) 140 % of control; (dose: 12.0 mg/kg/injection, schedule: Q04DX003 (ip), vehicle: water) 130 % of control; (dose: 24.0 mg/kg/injection, schedule: Q04DX003 (ip), vehicle: water) 130 % of control; (dose: 48.0 mg/kg/injection, schedule: Q04DX003 (ip), vehicle: water) 125 % of control. Besides, the survivor count (dose: 16.0 mg/kg/injection, schedule: Q01DX009 (ip), vehicle: water) was 6 of 6.

Regarding `O=C(NO)c1cc(O)c(O)c(O)c1`, the T/C (dose: 100.0 mg/kg/injection, schedule: Q01DX005 (ip), vehicle: distilled water + Tween-80) was 145 % of control. Besides, the survivor count (dose: 400.0 mg/kg/injection, schedule: Q01DX005 (ip), vehicle: distilled water + Tween-80) is 4 of 6; the survivor count (dose: 400.0 mg/kg/injection, schedule: Q01DX009 (ip), vehicle: distilled water + Tween-80) is 2 of 5; the survivor count (dose: 800.0 mg/kg/injection, schedule: Q01DX005 (ip), vehicle: distilled water + Tween-80) is on record as 6 of 6; the survivor count (dose: 800.0 mg/kg/injection, schedule: Q01DX009 (ip), vehicle: distilled water + Tween-80) is reported as 1 of 5.

As for `CC1CCC(C(C)C2C(O)CC3C4CCC5CC(N)CCC5(C)C4CCC32C)=NC1` (stereo not drawn) (tested in a mixture with another compound), the survivor count under setting [1] was 0 of 6.

For `O=[N+]([O-])c1cccnc1S(=O)(=O)c1ncccn1`, the survivor count was 2 of 6 under setting [1], 0 of 6 under setting [2] and 0 of 6 under setting [3].

Consider `CCCCN(CCCC)CCCCCCCC(O)c1cc2ccccc2c2ccccc12` (stereo not drawn), for which the survivor count (dose: 200.0 mg/kg/injection, schedule: Q01DX005 (ip), vehicle: saline + Tween-80 + alcohol) is listed as 4 of 5.

Regarding `NS(=O)(=O)c1cc2c(cc1Cl)NC(CCC(=O)O)=NS2(=O)=O`, the survivor count reads like this: (dose: 12.5 mg/kg/injection, schedule: Q01DX009 (ip), vehicle: other) 6 of 6; (dose: 200.0 mg/kg/injection, schedule: Q01DX009 (ip), vehicle: other) 6 of 6.

Turning to `CCc1nc2nc(C)cc(C)n2n1`, where the note is “dose: 12.5 mg/kg/injection, schedule: Q01DX009 (ip), vehicle: saline with Tween-80”, the survivor count is listed as 6 of 6.

With `O=C(CCCSCCCl)Nc1c([N+](=O)[O-])cc([N+](=O)[O-])cc1S(=O)(=O)O`, the T/C was 127 % of control (dose: 6.25 mg/kg/injection, schedule: Q04DX003 (ip), vehicle: olive oil, sesame oil, peanut oil); 132 % of control (dose: 12.5 mg/kg/injection, schedule: Q04DX003 (ip), vehicle: DMSO); 141 % of control (dose: 12.5 mg/kg/injection, schedule: Q04DX003 (ip), vehicle: olive oil, sesame oil, peanut oil); 136 % of control (dose: 25.0 mg/kg/injection, schedule: Q04DX003 (ip), vehicle: DMSO); 126 % of control (dose: 25.0 mg/kg/injection, schedule: Q04DX003 (ip), vehicle: olive oil, sesame oil, peanut oil); 142 % of control (dose: 50.0 mg/kg/injection, schedule: Q04DX003 (ip), vehicle: DMSO). The T/C by setting is: (dose: 50.0 mg/kg/injection, schedule: Q04DX003 (ip), vehicle: olive oil, sesame oil, peanut oil) 138 % of control; (dose: 75.0 mg/kg/injection, schedule: Q04DX003 (ip), vehicle: DMSO) 131 % of control. The survivor count (dose: 200.0 mg/kg/injection, schedule: Q04DX003 (ip), vehicle: olive oil, sesame oil, peanut oil) is 0 of 6.

For the molecule `CCc1cccc(CC)c1NC(=O)NN(CC)CC`, the survivor count (dose: 240.0 mg/kg/injection, schedule: Q01DX005 (ip), vehicle: saline with Tween-80) is 6 of 6.

`O=C(NC(=S)c1cccs1)Nc1ccccc1`: the survivor count (dose: 25.0 mg/kg/injection, schedule: Q01DX009 (ip), vehicle: saline with Tween-80) is 6 of 6.

On to `COc1cccc(CSC(=N)N)c1`, for which the survivor count is, setting by setting: under setting [2], 4 of 6; under setting [3], 0 of 6.

In the case of `CCC1=C[C@H]2CN(CCc3c([nH]c4cc(Br)ccc34)[C@@](C(=O)OC)(c3cc4c(cc3OC)N(C)[C@H]3[C@@](O)(C(=O)OC)[C@H](OC(C)=O)[C@]5(CC)C=CCN6CC[C@]43[C@@H]65)C2)C1`, the T/C (dose: 8.0 mg/kg/injection, schedule: Q01DX001 (ip), vehicle: water) was 132 % of control and the T/C (dose: 10.8 mg/kg/injection, schedule: Q01DX001 (ip), vehicle: water) was 142 % of control. For the same molecule, the survivor count (dose: 50.0 mg/kg/injection, schedule: Q01DX001 (ip), vehicle: water) is 0 of 6.
